PMC10774274
The exact form of at least one protein or probe is not confirmed.

The chains behind the UniProt entries cited, without tags or fusion partners. Where a name states a change or a piece, a line headed by the entry shows the natural chain unless it says otherwise.
UniProt P09651: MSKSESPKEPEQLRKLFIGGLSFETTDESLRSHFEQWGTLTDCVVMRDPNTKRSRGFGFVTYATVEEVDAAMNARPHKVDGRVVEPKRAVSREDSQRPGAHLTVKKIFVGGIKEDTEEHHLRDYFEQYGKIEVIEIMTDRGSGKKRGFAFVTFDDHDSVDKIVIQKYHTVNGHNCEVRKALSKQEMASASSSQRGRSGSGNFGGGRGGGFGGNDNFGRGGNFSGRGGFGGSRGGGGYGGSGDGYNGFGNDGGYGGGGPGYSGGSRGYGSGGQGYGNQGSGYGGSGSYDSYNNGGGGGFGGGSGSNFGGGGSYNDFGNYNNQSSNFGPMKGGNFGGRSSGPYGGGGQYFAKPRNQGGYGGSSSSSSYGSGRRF

Biological target: MBP-hnRNP A1 WT (N-MBP-TEV-A1WT-C) (UniProt P09651)
Test: EMSA
Details: 500 nM RNA, 0.04-5 ug protein; 2'-O-methyl on the 3'-terminal C; Label-free RNA EMSA: 500 nM RNA, 1X binding buffer (composition not given), 30 min at room temperature; 5% native TBE gel in 0.5X TBE, 60 V; protein stock in 150 mM NaCl; recombinant protein; protein details: N-terminal MBP with TEV site; label: none (SYBR Gold stain)

GGCUCUGGAAGAAGACAUAGAAAACCAUGCAACAGAUGUGCACCAGGCAGUC [hMACF1 RNA]
binding result: binds
